Experimental data: PMC10820826, “Interrogation and validation of the interactome of neuronal Munc18-interacting Mint proteins with AlphaFold2” (The Journal of Biological Chemistry, 2023)
No constants are given. Whether binding was seen depends on the method and setting. For some assays here: Where a sequence is shown, tags or fusion partners need not be part of it. Each block holds one binder with its values, some of them ahead of it.

How the values were obtained:
[1] = target: T1, GST-Mint1 MID (residues 222-314) (human) (UniProt Q02410)
T1 sequence: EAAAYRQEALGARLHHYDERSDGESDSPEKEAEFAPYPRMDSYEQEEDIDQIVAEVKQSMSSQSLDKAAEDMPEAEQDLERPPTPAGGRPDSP

[2] = target: Munc18-1-His (rat) (UniProt P61765)

Binder: IVAEVKQSMS [Mint1_1a peptide (273-282)]
binding [2]: no binding

Binder: MDSYEQEEDIDQ [Mint1_1b peptide (261-272)]
binding [2]: no binding

Binder: MDSYEQEEDIDQIVAEVK [Mint1_8 peptide (261-278)]
binding [2]: no binding

Further lines, results first:

binding [1]: no binding
B1: Munc18-3 (protein, UniProt Q60770 1-592)
chain: MAPPVSERGLKSVVWRKIKTAVFDDCRKEGEWKIMLLDEFTTKLLSSCCKMTDLLEEGITVIENIYKNREPVRQMKALYFISPTPKSVDCFLRDFGSKSEKKYKAAYIYFTDFCPDSLFNKIKASCSKSIRRCKEINISFIPQESQVYTLDVPDAFYYCYSPDPSNASRKEVVMEAMAEQIVTVCATLDENPGVRYKSKPLDNASKLAQLVEKKLEDYYKIDEKGLIKGKTQSQLLIIDRGFDPVSTVLHELTFQAMAYDLLPIENDTYKYKTDGKEKEAVLEEDDDLWVRVRHRHIAVVLEEIPKLMKEISSTKKATEGKTSLSALTQLMKKMPHFRKQISKQVVHLNLAEDCMNKFKLNIEKLCKTEQDLALGTDAEGQRVKDSMLVLLPVLLNKNHDNCDKIRAVLLYIFGINGTTEENLDRLIHNVKIEDDSDMIRNWSHLGVPIVPPSQQAKPLRKDRSAEETFQLSRWTPFIKDIMEDAIDNRLDSKEWPYCSRCPAVWNGSGAVSARQKPRTNYLELDRKNGSRLIIFVIGGITYSEMRCAYEVSQAHKSCEVIIGSTHILTPRKLLDDIKMLNKSKDKVSFKDE

binding [2]: no binding
Binder: MDSYEQEEDIDQIVAE [Mint1_9 peptide (261-276)]
